The record followed here is US20070015230A1 (AMERICAN NATIONAL RED CROSS, published 2007).

This assay deals with T1, Human CRP (Novagen) (human, UniProt P02741 19-224).
T1 construct: also called C-reactive protein
T1 sequence (looked up): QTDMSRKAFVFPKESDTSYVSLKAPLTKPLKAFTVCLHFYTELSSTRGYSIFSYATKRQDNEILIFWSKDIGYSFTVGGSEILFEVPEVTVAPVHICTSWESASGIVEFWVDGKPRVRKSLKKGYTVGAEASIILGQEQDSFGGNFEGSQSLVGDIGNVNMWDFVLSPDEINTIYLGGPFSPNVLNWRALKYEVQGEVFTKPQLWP
Nature of the assay: Bead Blot of library beads loaded from CRP-spiked whole blood, detected with an anti-CRP antibody, confirmed by re-incubation.

No constants are given. Whether binding was seen depends on the method and setting. Some binding calls cover weakened binding; strength is not graded here.

LGTYIA: the binding result was “binds”.
